Source: patent publication US20100249022A1
These are yes or no findings as the source states them, for the method shown. Some results given as binding are weak or reduced against the parent protein; the word gives no strength.

Chains of the proteins cited; added tags and fusions are not shown. Residues count along the entry.
UniProt P13501, residues 24-91: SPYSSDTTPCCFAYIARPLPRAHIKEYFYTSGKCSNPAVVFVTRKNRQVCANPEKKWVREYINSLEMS

Molecular target: exCCR5-6xHis (human)
Test: pull down

## RANTES (CCL5) (from UniProt P13501 24-91) (ligand)
  binding: binds
